Results as given in article PMC9531157.
Results are given in words; binding and its absence hold for the method and conditions named. Binding seen in cells or lysates may run through a third protein. Some entries that bind do so weakly or less than the wild type.

By UniProt entry, the sequences of proteins in these tests, tags left out. Residues count along the entry.
UniProt P11142: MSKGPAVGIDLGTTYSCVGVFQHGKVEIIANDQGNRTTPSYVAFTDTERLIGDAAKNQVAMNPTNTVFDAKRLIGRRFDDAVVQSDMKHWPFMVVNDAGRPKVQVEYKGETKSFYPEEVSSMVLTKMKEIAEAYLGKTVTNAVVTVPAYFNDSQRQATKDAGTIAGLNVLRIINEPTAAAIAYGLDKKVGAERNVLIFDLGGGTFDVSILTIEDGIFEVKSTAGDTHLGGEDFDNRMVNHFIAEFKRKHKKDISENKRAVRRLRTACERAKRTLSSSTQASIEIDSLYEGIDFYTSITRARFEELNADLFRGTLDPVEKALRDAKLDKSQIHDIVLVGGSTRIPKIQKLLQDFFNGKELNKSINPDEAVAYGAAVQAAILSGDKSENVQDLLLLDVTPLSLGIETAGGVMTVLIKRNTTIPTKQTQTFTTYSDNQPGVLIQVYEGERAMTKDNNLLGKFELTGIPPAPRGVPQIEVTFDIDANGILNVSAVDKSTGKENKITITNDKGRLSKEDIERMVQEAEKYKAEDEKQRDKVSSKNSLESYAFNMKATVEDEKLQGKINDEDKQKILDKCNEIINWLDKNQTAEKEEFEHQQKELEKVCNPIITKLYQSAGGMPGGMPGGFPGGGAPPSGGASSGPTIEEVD
UniProt O95831, residues 102-613: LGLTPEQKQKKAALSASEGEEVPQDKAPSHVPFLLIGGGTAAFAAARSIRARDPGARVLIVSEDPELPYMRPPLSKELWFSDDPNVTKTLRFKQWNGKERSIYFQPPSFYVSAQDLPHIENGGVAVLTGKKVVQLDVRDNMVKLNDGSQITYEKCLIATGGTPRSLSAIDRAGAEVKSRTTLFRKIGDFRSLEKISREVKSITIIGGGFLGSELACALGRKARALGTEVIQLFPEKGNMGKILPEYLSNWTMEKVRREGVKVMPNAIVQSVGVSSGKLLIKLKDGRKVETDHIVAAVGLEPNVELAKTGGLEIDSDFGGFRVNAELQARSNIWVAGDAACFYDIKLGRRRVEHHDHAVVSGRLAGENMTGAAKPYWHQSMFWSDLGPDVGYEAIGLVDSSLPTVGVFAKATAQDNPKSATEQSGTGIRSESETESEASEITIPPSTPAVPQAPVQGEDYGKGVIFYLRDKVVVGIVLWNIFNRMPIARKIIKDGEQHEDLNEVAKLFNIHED

What was measured:
[1] = molecular target: heat shock cognate 70 (human (endogenous in Ca Ski and SiHa)) (UniProt P11142); assay: condition: only cells treated with 10 µM SHetA2 for 24 hours; co-IP; as a1, but cells treated with 10 µM SHetA2 for 24 hours before lysis
[2] = molecular target: heat shock cognate 70 (human (endogenous in Ca Ski and SiHa)) (UniProt P11142); assay: co-IP; lysates (about 500 ug protein, M-PER) of vehicle-treated Ca Ski and SiHa cells incubated overnight at 4°C with agarose beads cross-linked to 10 ug hsc70 or AIF antibody (Pierce Crosslink IP kit); Western blot of the precipitates
[3] = molecular target: apoptosis-inducing factor (human (endogenous in Ca Ski and SiHa)) (UniProt O95831); assay: condition: only cells treated with 10 µM SHetA2 for 24 hours; co-IP; as a1, but cells treated with 10 µM SHetA2 for 24 hours before lysis
[4] = molecular target: apoptosis-inducing factor (human (endogenous in Ca Ski and SiHa)) (UniProt O95831); assay: co-IP; lysates (about 500 ug protein, M-PER) of vehicle-treated Ca Ski and SiHa cells incubated overnight at 4°C with agarose beads cross-linked to 10 ug hsc70 or AIF antibody (Pierce Crosslink IP kit); Western blot of the precipitates

apoptosis-inducing factor (from UniProt O95831 102-613)
binding [1]: no binding
binding [2]: binds

heat shock cognate 70 (from UniProt P11142 1-646)
binding [3]: no binding
binding [4]: binds
